Results published in paper PMC8785589.
No constants are given. Whether binding was seen depends on the method and setting. In cells and extracts the contact can be indirect. Where a sequence is shown, tags or fusion partners need not be part of it.

Biological target: T1, HA-tagged p100 (UniProt Q00653)
T1 sequence: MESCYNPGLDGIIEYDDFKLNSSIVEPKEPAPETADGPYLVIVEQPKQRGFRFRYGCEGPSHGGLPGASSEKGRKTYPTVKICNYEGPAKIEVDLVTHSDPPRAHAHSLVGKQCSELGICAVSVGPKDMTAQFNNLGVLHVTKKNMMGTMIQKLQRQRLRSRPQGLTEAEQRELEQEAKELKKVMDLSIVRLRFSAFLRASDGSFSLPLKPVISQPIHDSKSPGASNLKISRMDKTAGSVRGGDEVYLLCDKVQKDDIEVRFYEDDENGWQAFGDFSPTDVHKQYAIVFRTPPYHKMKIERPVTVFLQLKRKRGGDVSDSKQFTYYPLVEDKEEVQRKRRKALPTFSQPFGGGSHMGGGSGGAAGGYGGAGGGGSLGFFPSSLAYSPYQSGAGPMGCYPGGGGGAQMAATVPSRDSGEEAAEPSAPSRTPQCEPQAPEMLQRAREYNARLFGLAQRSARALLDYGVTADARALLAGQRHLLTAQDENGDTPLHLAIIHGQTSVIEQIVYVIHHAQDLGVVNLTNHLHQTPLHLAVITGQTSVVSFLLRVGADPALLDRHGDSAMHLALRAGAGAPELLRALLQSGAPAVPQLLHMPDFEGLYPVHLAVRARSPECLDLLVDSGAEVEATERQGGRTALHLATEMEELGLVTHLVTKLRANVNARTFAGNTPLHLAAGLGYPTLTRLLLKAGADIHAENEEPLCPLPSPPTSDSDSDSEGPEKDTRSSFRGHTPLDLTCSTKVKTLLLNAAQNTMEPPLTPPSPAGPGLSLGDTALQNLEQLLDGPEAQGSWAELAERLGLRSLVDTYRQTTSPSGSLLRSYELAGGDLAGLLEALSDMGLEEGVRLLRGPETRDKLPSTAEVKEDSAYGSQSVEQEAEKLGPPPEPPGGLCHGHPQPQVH
Assay: co-IP; HEK293T co-transfected with FLAG-Vpx and an HA-tagged protein, 24 h; lysis in 0.5% NP-40 in PBS with protease and phosphatase inhibitors; anti-HA agarose beads 2-4 h, 3 washes; blots for FLAG and HA

FLAG-tagged SIVmac Vpx (SIVmac251)
binding: no binding
